These are yes or no findings as the source states them, for the method shown. In cells and extracts the contact can be indirect. Some entries that bind do so weakly or less than the wild type.
How the values were obtained:
[1] = target: PfRiprHA, HA-tagged P. falciparum Rh5 interacting protein (Plasmodium falciparum (3D7RiprHA line)) (UniProt O97302); test: co-IP; proteins solubilised from saponin pellets of 3D7RiprHA schizonts (2% n-Dodecyl-N,N-Dimethylamine-N-Oxide in PBS); precipitation with anti-HA antibody beads; blots with monoclonal anti-PfRh5 or rabbit anti-PfRipr/3; 3D7 as control
[2] = target: PfRh5, full-length mature protein (approximately 63 kDa) (Plasmodium falciparum (endogenous in the 3D7RiprHA line)) (UniProt Q8IFM5); test: co-IP; proteins solubilised from saponin pellets of 3D7RiprHA schizonts; precipitation with monoclonal anti-PfRh5 antibody; blots with anti-HA and anti-PfRh2a/b

Amino acid sequences for entries named in this document (tags omitted). Residues count along the entry.
UniProt O97302, residues 20-1086: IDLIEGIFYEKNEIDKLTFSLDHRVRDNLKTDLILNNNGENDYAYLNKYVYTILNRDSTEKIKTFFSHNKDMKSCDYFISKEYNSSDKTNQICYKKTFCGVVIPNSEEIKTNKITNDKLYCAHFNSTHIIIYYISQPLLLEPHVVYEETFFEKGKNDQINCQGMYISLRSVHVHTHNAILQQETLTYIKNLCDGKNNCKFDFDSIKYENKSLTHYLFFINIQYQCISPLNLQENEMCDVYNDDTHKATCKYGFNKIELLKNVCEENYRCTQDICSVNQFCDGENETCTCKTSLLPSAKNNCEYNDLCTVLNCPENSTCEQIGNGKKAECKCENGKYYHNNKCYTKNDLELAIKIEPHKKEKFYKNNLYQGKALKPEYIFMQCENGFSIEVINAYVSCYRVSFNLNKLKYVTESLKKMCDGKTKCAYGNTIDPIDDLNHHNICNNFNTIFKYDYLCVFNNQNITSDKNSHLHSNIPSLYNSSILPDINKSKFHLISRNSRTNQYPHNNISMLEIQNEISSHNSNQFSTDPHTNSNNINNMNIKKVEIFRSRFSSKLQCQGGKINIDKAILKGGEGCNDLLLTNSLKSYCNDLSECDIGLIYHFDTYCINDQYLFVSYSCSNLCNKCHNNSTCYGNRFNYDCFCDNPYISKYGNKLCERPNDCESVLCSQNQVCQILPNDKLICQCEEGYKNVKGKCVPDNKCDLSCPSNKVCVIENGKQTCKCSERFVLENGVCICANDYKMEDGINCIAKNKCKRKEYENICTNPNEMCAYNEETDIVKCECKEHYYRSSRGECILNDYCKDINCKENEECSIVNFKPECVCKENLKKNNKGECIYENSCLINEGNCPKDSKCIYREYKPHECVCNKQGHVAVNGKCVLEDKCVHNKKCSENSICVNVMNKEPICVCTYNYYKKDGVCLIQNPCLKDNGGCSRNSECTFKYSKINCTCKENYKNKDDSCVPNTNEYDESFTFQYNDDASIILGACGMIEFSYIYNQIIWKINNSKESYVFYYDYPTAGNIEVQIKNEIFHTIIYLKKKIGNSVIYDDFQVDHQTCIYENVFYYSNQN
UniProt Q8IFM5, residues 25-526: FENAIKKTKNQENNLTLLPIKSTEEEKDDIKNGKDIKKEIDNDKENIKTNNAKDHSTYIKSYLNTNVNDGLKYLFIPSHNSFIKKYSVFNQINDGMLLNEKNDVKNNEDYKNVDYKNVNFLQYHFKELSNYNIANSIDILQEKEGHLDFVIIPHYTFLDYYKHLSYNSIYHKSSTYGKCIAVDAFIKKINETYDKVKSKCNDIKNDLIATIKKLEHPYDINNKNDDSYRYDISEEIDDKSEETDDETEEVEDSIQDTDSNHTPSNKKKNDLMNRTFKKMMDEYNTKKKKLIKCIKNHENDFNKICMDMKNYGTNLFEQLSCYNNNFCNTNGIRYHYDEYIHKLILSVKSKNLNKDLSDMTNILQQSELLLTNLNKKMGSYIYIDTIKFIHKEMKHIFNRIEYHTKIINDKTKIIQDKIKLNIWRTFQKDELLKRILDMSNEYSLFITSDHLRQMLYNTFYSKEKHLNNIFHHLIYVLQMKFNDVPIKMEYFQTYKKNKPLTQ

Row | Substance | binding [1] | binding [2]
1 | PfRh5, full-length mature protein (approximately 63 kDa) (from UniProt Q8IFM5 25-526) | binds | –
2 | PfRiprHA, HA-tagged P. falciparum Rh5 interacting protein (from UniProt O97302 20-1086) | – | binds

— PMC3164636
